The other results are listed elsewhere or left out. These are further read-outs of the screen, such as a control signal, another cell line or another target. No call is given for them. The list favours compounds with an active or inconclusive main result. Potencies come from curve fits of mixed quality, noted in brackets.

As a reminder, the AC50 is the concentration at which the activity in the assay is half-maximal.

The assay in a line: Cell signaling CRE-BLA (Fsk stim). The note with it: CHO CRE-bla reporter (cAMP response element driving beta-lactamase), forskolin EC10, beta-lactamase ratio; measured here: 460 nm blue channel. Put shortly:
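Modulation of forskolin-driven signalling is measured in CHO cells carrying a CRE-controlled beta-lactamase reporter. Cells are stimulated with EC10 NKH 477 in the presence of titrated compound for 3 h at 37 °C, then loaded with CCF4 for 2 h at room temperature.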
Turning to `Cc1nn(Cc2ccc(Cl)c(Cl)c2)c(C)c1NC(=O)c1cc(-c2ccco2)on1`, the AC50 was 0.00398 µM [falling, full curve, poor fit].

`CCOC(=O)c1sc2nc3n(c(=O)c2c1C)CCCCC3`: the AC50 is 12.6 µM [rising, partial curve]. Consider `CN(C)C(CNC(=O)CN1C(=O)NC2(CCc3ccccc32)C1=O)c1ccco1` (configuration not stated), for which the half-maximal activity concentration (AC50) is 0.0501 µM [falling, full curve, poor fit]. On to `COCCNC(=O)C(c1cccc(OC)c1)N(Cc1cccs1)C(=O)Cn1nnc2ccccc21` (configuration not stated), for which the half-maximal activity concentration (AC50) was 0.1 µM [falling, full curve]. Turning to `CCOC(=O)c1c(C)n(OCc2ccccc2)c2ccc3c(no[n+]3[O-])c12`, the AC50 was 1.58 µM [rising, full curve].

For the compound `Cc1ccn2c(-c3csc(NCc4ccco4)n3)c(C)nc2c1`, the AC50 is 0.00398 µM [falling, full curve]. `CCOc1cc(CNc2ncc(-c3ccc(OC)cc3)n2C)ccc1O`: the AC50 was 5.01 µM [falling, full curve, poor fit].

Turning to `O=C(c1ccncc1)N1CCC2(CCCN(c3cccc(-c4ccccc4)c3)C2)CC1`, the AC50 was 15.8 µM [rising, single point]. For `CC1CN(c2nc3ccccc3nc2C(C#N)C(=O)NCc2ccc3c(c2)OCO3)CC(C)O1` (configuration not stated), the AC50 is 0.631 µM [rising, full curve].

`CCOC(=O)c1c(C)[nH]c(C(=O)COC(=O)c2ccncc2)c1C`: the AC50 is 5.01 µM [rising, single point].

Turning to `O=C(CSc1nnc(-c2ccncc2)n1-c1ccc(F)cc1)NC(=O)NCc1ccco1`, the AC50 was 0.0251 µM [falling, full curve, poor fit]. For the compound `CCn1c(=O)c2cc(C(=O)NCc3cccs3)sc2c2ccccc21`, the AC50 is 2 µM [rising, full curve].

Turning to `O=C(NCc1cccnc1)C1CCN(C(=O)c2ccc(Cl)cc2Cl)CC1`, the AC50 is 3.16 µM [falling, partial curve, poor fit].

Regarding `O=C(Nc1ccccn1)N1CCOCC1`, the AC50 is 0.158 µM [falling, full curve]. Then `CN(C)c1ccc(-c2ccc3ncnc(N(C)Cc4ccco4)c3c2)cc1`, with 3.98 µM [rising, full curve]; and `CCOc1ccccc1Nc1nnc(Cc2ccccc2Cl)c(=O)[nH]1`, with 12.6 µM [falling, partial curve, poor fit]; and `COc1ccc(CN2C(=O)CN(C3CCCCCC3)C(=O)C2c2ccc(OC)c(OC)c2)cc1` (configuration not stated), with 0.00794 µM [rising, full curve, poor fit].

Regarding `Cc1noc(C)c1Cn1nc(C(=O)O)c2ccccc2c1=O`, the AC50 was 20 µM [rising, single point]. With `CCOC(=O)c1ccc(NC(=O)CSc2nc(SC)ns2)cc1`, the AC50 is 0.00316 µM [falling, full curve, poor fit]. Regarding `Cc1nc2cnc(Oc3ccccc3)nc2n(C)c1=O`, the AC50 is 25.1 µM [rising, single point]. `COc1ccc(-c2nc3cnc(N4CCN(C)CC4)nc3n(CCc3ccccc3)c2=O)cc1`: the AC50 was 2.51 µM [rising, full curve]. Then `COc1ccc(C)cc1NC(=O)c1ccoc1C`, with 0.316 µM [rising, partial curve, poor fit]; and `COc1cccc2c1[C@H](CO)N1[C@H](C#N)[C@@H]3C[C@H](C(=O)O)[C@@H]([C@@H]1C2)N3C`, with 2 µM [falling, single point]. On to `CCc1ccc(-c2nn[nH]n2)cc1`, for which the AC50 is 5.01 µM [falling, single point]. Then `CCOC(=O)c1cc(C(C)=O)c(=O)n(C)c1N`, with 25.1 µM [rising, single point]. Regarding `Cc1nnc(SCc2cnc(-c3ccccc3)o2)[nH]c1=O`, the AC50 was 20 µM [rising, single point]. For `COc1ccccc1CCn1c(=O)c(-c2cccc(F)c2)nc2cncnc21`, the AC50 is 12.6 µM [rising, single point]. On to `CCc1cc(-c2n[nH]c(C)c2-c2nc3ccccc3n2C)c(O)c(CN2CCN(C)CC2)c1O`, for which the AC50 was 0.00316 µM [falling, full curve, poor fit].

Regarding `CN(C)c1ncc2nc(-c3cccs3)c(=O)n(C)c2n1`, the AC50 was 5.01 µM [rising, partial curve]. `O=c1c(CCc2ccccc2)nc2cnc(N3CCOCC3)nc2n1Cc1ccc(F)cc1`: the AC50 was 15.8 µM [rising, partial curve]. As to `CCOC(=O)c1c(NC(=O)CC)sc(C(C)=O)c1C`, the AC50 is 12.6 µM [rising, partial curve].

As for `CCn1c(SCC(=O)c2cc(C)n(CC3CCCO3)c2C)nc2ccccc21` (configuration not stated), the AC50 is 10 µM [rising, partial curve]. With `COC(=O)c1ccccc1NC(=O)Nc1cccs1`, the concentration at half-maximal activity (AC50) is 1.26 µM [falling, full curve]. With `O=C(C[C@@H](C(=O)O)N1CCOCC1)c1ccccc1` the figure was 3.98 µM [falling, partial curve, poor fit]; with `CCOc1ccc(-n2c(SCC(=O)Nc3ccc4c(c3)OCCO4)nc3c(c2=O)SCC3)cc1`, 25.1 µM [rising, single point]. In the case of `Cc1sc2nc(CN3CCOCC3)nc(NS(=O)(=O)c3ccc4c(c3)OCCO4)c2c1C`, the AC50 is 10 µM [rising, partial curve]. With `O=C1COc2ccc(C(=O)COC(=O)c3ccc4ccccc4n3)cc2N1` the figure was 0.00794 µM [falling, full curve, poor fit]; with `COc1ccc(-n2c(SCC#N)nnc2-c2ccc(NS(=O)(=O)c3ccc(C)cc3)cc2)cc1`, 3.98 µM [rising, single point].

Consider `O=C(CCNS(=O)(=O)c1cccc2nsnc12)N1CC(=O)N(CCc2ccccc2)C(=O)C1`, for which the AC50 was 0.631 µM [falling, partial curve]. As to `O=C(CSc1ncnc2c1oc1ccccc12)c1cccs1`, the concentration at half-maximal activity (AC50) was 15.8 µM [rising, single point]. For the compound `CCOC(=O)c1c(C2CC2)csc1NC(C)=O`, the AC50 was 25.1 µM [rising, single point]. Turning to `O=C(CN1C(=O)COc2ccccc21)NCCN1CCc2ccccc2C1`, the AC50 is 0.126 µM [falling, full curve, poor fit].

On to `Cc1scc(C(=O)Nn2cnnc2)c1-c1ccccc1`, for which the AC50 was 0.00316 µM [falling, full curve, poor fit].

Take `Cc1cc2c(cc(C(=O)OCC(=O)NCc3cccs3)n2C(C)C)o1`: the AC50 is 10 µM [rising, partial curve]. In the case of `O=C(c1cccc2cccc(O)c12)N1CCCCC1`, the AC50 was 0.0316 µM [falling, full curve]. Turning to `O=c1c(-c2cccs2)nc2cnc(N3CCOCC3)nc2n1CCc1ccccc1`, the AC50 is 0.501 µM [rising, full curve]. On to `Cc1c(CCC(=O)O)c(=O)oc2cc(O)ccc12`, for which the AC50 is 12.6 µM [rising, single point]. With `CCOC(=O)c1ccc(NC(=O)CSC2=NC(=O)C(CC)C(=O)N2)cc1` (configuration not stated), the AC50 is 3.16 µM [falling, single point]. For `COc1ccc(Nc2ncnc3c2cnn3-c2ccccc2)cc1OC`, the concentration at half-maximal activity (AC50) was 10 µM [rising, partial curve]. Regarding `Cc1nn(-c2ccccc2)c(C)c1C(=O)OCC(=O)NC(=O)NC1CCCCC1`, the concentration at half-maximal activity (AC50) is 12.6 µM [rising, partial curve].

Turning to `O=C(CN1CCN(Cc2ccccc2Cl)C1=O)NC1CCCCCC1`, the AC50 was 10 µM [rising, partial curve].

Turning to `CCCc1nc(N)c(C#N)c(-c2cccnc2)c1CC`, the AC50 was 10 µM [rising, partial curve]. Then `O=c1c2[nH]c3ccccc3c2ncn1Cc1cccnc1`, with 25.1 µM [rising, single point].

`O=C(CSc1nc2ccccc2c(=O)n1CCCC(=O)N1CCCC1)NCc1ccco1`: the AC50 was 10 µM [falling, single point]. With `CCOC(=O)c1cc(-c2cccnc2)nn1-c1ccccn1` the figure was 2.51 µM [falling, partial curve, poor fit]; with `Cc1c(C(=O)Nc2ccccc2Cl)oc2ccc(S(=O)(=O)N3CCC4(CC3)OCCO4)cc12`, 25.1 µM [rising, single point]; with `CCCc1ccc(Oc2cn[nH]c2-c2ccc(O)cc2O)cc1`, 0.0631 µM [falling, partial curve, poor fit]. Then `C=C(C)CSc1nnc(-c2cccc(S(=O)(=O)N(C)C)c2)n1-c1cc(OC)ccc1OC`, with 20 µM [rising, partial curve]; and `CNCC[C@@H](Oc1ccccc1C)c1ccccc1`, with 25.1 µM [falling, single point]; and `CCCCn1c(SCC(=O)c2ccc3c(c2)OCCO3)nnc1-c1ccco1`, with 15.8 µM [rising, single point]. Consider `COc1ccc2c(c1)[n+]([O-])c(/C(C)=N/NC(N)=S)c(C)[n+]2[O-]`, for which the AC50 was 3.98 µM [rising, partial curve]. Turning to `O=C(CSc1nc2ccccc2c2nc3ccccc3n12)NCc1ccco1`, the AC50 was 2.51 µM [rising, full curve]. For `COc1ccc2cc(C#N)c(NC(C)C)nc2c1`, the AC50 is 12.6 µM [rising, single point].

In the case of `COc1ccc(C(=O)/C=C/Nc2cc(C)on2)c(OC)c1`, the AC50 was 25.1 µM [falling, single point]. With `O=c1c2ccccc2nc(-c2ccco2)n1Cc1ccccc1`, the AC50 is 6.31 µM [rising, partial curve].

As for `O=c1c2ccccc2nc(COc2ccccc2)n1/N=C/c1ccco1`, the AC50 is 3.16 µM [falling, partial curve, poor fit]. For the compound `CCCOc1ccc(C2C(C(=O)OC)=CN(CCOC)C=C2C(=O)OC)cc1`, the AC50 is 10 µM [rising, partial curve].

Values taken from PubChem BioAssay AID662 (National Center for Advancing Translational Sciences (NCATS), 2007).
